# Test results from the supplement of paper PMC6411743.
# By UniProt entry, the sequences of proteins in these tests, tags left out. Where a name states a change or a piece, a line headed by the entry shows the natural chain unless it says otherwise.
# UniProt Q6Y288: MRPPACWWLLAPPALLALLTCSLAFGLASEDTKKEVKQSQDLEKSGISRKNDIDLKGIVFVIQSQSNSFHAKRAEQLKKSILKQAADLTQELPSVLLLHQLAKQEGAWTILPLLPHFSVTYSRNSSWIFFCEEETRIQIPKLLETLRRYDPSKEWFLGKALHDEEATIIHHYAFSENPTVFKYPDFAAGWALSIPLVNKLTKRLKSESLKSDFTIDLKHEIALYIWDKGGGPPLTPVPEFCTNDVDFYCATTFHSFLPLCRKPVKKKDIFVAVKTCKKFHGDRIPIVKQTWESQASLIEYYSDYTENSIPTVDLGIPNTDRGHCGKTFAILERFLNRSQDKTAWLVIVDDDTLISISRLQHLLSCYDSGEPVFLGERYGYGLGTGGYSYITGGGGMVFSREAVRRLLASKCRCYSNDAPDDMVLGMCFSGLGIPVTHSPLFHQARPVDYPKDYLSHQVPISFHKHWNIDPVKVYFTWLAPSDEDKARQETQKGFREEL
# UniProt Q86V88: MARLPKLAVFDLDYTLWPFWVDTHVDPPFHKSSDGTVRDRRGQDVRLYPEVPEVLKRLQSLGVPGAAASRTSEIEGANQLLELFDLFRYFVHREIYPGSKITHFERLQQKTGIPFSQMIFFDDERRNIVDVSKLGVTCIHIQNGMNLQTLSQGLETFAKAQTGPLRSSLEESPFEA
# UniProt Q6STE5, whole entry: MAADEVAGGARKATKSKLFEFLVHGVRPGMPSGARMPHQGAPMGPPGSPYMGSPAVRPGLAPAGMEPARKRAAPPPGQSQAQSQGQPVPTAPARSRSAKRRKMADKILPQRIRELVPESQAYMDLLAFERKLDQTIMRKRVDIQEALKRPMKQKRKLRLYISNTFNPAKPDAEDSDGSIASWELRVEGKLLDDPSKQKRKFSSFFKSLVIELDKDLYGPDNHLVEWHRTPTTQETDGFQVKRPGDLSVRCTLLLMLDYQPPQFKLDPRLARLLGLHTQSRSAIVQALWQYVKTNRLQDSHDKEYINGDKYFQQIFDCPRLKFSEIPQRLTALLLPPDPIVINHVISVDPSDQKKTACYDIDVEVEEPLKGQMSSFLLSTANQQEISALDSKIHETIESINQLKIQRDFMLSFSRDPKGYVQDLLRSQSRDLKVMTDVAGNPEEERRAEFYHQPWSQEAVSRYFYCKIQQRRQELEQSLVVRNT
# UniProt Q6PID6, whole entry: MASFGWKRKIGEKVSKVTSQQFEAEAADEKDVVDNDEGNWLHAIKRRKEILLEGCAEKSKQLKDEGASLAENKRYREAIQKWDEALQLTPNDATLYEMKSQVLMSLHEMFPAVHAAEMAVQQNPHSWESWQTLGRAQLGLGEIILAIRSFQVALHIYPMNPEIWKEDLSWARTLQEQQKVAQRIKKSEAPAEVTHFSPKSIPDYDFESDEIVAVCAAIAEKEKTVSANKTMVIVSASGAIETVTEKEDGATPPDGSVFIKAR
# UniProt Q86VX2, whole entry: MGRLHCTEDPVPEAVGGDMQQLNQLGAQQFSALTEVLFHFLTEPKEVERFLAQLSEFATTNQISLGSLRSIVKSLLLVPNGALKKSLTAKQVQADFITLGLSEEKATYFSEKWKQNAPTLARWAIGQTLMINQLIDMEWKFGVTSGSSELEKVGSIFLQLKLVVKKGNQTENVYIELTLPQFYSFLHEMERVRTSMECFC
# UniProt Q7Z591: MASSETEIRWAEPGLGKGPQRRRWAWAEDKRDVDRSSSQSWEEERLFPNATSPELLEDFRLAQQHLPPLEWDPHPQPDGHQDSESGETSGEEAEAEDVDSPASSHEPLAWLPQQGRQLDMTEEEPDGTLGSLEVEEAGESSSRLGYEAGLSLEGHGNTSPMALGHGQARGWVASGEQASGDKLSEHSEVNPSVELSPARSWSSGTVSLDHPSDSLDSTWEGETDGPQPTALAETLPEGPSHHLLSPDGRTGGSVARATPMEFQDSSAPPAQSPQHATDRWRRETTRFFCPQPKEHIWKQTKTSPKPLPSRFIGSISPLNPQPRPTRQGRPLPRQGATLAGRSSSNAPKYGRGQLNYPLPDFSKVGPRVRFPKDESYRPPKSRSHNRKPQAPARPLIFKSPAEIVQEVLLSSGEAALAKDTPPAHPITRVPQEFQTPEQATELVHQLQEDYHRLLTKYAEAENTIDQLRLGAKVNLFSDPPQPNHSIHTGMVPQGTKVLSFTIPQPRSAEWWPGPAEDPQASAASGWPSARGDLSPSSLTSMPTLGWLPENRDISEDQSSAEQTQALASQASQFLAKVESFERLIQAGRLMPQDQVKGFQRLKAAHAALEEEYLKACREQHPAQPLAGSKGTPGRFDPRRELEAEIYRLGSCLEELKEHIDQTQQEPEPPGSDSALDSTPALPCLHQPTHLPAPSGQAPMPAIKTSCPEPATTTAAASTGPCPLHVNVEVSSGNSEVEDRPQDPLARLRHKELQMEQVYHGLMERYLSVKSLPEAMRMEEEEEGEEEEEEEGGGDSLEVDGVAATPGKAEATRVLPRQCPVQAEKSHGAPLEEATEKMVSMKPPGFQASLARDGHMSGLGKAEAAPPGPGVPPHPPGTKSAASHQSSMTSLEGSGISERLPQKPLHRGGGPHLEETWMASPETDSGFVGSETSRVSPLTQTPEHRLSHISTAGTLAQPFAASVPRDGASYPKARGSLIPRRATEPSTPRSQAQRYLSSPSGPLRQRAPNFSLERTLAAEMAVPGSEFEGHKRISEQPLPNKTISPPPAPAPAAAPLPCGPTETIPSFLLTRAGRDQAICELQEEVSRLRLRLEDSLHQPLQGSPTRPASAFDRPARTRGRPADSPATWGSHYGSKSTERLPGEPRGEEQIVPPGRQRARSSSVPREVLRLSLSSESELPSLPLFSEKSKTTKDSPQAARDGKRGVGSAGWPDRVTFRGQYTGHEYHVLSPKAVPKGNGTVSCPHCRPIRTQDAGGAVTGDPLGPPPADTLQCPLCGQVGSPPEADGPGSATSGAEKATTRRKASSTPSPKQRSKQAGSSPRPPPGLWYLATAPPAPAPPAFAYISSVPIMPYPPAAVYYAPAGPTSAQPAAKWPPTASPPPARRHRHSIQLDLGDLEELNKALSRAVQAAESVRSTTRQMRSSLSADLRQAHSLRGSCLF
# UniProt Q86UA1: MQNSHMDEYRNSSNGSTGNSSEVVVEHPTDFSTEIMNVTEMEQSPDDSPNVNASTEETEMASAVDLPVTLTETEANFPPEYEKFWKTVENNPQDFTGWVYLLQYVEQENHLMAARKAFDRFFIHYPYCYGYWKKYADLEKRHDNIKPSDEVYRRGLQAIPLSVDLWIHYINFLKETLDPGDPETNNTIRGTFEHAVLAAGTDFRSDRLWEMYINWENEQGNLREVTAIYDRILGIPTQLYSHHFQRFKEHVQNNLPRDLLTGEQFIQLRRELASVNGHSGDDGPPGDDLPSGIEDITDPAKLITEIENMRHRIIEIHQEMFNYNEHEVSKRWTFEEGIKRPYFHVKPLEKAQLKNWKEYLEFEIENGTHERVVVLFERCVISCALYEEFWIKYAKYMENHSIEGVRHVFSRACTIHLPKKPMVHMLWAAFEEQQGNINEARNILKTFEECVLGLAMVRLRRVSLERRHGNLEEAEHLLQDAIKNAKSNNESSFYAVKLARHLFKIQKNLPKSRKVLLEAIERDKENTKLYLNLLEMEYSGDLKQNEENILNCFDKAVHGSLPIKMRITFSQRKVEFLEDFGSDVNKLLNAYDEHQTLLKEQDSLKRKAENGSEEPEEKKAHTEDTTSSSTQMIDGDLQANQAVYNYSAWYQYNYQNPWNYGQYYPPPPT
# UniProt Q6SJ93: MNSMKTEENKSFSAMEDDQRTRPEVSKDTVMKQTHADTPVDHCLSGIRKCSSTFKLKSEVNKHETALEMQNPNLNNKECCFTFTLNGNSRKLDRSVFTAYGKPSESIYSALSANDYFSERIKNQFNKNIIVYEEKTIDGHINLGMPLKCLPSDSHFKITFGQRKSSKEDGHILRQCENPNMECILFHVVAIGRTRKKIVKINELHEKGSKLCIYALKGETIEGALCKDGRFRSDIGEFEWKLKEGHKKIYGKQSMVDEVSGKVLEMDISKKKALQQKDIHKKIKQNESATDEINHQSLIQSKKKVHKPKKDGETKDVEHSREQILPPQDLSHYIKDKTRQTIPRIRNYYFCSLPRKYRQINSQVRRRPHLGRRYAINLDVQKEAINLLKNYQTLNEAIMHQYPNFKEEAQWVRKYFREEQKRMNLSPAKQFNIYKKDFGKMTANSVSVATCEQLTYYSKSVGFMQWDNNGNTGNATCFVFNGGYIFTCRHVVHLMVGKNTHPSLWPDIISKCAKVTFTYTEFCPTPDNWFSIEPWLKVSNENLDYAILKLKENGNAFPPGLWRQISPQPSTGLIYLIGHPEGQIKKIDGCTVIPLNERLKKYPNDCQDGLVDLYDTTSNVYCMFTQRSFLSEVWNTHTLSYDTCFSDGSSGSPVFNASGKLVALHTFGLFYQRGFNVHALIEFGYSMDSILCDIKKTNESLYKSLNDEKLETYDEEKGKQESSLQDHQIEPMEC
# UniProt Q86YM7: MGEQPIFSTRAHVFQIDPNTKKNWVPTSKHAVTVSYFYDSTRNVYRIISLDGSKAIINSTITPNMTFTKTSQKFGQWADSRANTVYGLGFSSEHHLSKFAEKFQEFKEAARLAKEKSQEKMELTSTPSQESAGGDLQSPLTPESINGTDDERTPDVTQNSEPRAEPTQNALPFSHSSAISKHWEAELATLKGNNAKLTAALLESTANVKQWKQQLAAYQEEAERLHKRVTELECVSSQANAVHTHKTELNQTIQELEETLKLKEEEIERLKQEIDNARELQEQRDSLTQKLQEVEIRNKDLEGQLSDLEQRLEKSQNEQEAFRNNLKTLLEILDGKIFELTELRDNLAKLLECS
# UniProt Q8IV48: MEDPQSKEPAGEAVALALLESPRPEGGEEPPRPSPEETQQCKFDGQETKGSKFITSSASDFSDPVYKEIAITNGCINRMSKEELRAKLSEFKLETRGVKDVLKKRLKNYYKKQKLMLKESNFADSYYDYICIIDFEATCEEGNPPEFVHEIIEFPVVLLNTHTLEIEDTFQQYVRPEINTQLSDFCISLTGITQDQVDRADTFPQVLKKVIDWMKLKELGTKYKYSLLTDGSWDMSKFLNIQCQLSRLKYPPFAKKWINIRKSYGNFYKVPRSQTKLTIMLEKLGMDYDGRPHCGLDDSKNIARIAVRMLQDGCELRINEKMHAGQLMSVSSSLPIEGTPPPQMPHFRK
# UniProt Q6YN16: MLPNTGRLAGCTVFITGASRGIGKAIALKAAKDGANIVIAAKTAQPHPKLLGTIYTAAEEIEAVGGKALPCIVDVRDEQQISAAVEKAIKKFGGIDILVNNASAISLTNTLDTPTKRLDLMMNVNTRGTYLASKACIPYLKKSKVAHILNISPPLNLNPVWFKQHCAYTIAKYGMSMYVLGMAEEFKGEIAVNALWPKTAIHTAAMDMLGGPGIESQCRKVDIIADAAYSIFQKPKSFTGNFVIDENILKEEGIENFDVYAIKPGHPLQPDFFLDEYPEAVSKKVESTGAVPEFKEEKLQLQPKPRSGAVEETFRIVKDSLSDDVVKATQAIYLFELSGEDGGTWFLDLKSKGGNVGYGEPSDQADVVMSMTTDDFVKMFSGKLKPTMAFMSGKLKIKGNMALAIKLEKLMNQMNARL
# UniProt Q7L8J4: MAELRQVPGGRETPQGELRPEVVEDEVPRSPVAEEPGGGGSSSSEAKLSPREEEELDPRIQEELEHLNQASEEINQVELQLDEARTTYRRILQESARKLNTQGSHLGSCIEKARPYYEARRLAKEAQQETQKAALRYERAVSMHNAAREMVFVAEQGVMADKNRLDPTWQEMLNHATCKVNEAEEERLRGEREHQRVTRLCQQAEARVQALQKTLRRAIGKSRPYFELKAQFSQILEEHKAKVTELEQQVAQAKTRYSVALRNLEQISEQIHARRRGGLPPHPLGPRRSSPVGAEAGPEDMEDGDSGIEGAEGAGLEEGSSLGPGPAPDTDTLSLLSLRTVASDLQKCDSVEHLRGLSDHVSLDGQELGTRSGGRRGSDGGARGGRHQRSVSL
# UniProt Q86U44, whole entry: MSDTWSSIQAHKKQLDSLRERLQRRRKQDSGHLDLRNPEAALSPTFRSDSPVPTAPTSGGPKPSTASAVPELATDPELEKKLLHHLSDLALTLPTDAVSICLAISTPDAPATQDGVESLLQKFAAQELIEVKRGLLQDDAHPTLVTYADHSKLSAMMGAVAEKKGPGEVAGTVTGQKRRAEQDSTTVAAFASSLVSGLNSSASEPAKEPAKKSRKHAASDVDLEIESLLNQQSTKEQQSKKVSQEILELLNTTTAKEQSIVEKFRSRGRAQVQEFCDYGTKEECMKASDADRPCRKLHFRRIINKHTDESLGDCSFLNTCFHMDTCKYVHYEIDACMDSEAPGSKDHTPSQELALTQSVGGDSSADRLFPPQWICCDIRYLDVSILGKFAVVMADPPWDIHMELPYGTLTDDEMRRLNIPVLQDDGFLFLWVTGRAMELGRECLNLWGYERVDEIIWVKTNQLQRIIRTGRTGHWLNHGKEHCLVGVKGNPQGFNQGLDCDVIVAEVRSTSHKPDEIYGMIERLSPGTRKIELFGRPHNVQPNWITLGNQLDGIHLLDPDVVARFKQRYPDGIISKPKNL
# ± gives the standard deviation of the averaged measurements. The list shows a part of the results, in another mix than the full data.
# Compound: Nc1ncnc2c1ncn2[C@@H]1O[C@H](COP(=O)(O)OP(=O)(O)OP(=O)(O)O)[C@@H](O)[C@H]1O [adenosine triphosphate]
# Experiment: NP40-soluble protein abundance relative to vehicle (solubility fold change) (ratio); higher = more soluble protein in presence of ATP
# Summary of the method: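 In three independent experiments, Jurkat crude lysate made by Dounce homogenisation was treated for 10 min at room temperature and then 3 min at 37 °C with eight concentrations ranging from 0.1 to 10 mM. It was then solubilised with 0.8% NP40 plus benzonase for 60 min at 4 °C and ultracentrifuged. The supernatant was TMT-labelled for LC-MS/MS, and each value is the fold change against the detergent-processed vehicle for the same replicate, using vsn-normalised intensities.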
Target,NP40-soluble protein abundance (concentration: 1mM),NP40-soluble protein abundance (concentration: 2mM),NP40-soluble protein abundance (concentration: 4mM),NP40-soluble protein abundance (concentration: 6mM),NP40-soluble protein abundance (concentration: 8mM),NP40-soluble protein abundance (concentration: 10mM)
UniProt Q7Z333 and related entries,1.14 ± 0.11,1.1 ± 0.099,1.09 ± 0.047,1.08 ± 0.16,1.032 ± 0.0057,1.09 ± 0.074
UniProt Q7KZN9 and related entries,1.05 ± 0.32,1.02 ± 0.24,1.02 ± 0.17,0.98 ± 0.14,1.04 ± 0.17,0.971 ± 0.12
USP34 (UniProt Q70CQ2),1.01 ± 0.048,1.02 ± 0.04,1.04 ± 0.023,0.963 ± 0.05,1.04 ± 0.012,1.01 ± 0.031
TICAM1 (UniProt Q8IUC6),0.964 ± 0.2,1 ± 0.12,0.939 ± 0.059,0.921 ± 0.024,0.88 ± 0.068,0.916 ± 0.089
MEPCE (UniProt Q7L2J0),1.1 ± 0.07,1.13 ± 0.066,1.2 ± 0.078,1.32 ± 0.15,1.38 ± 0.1,1.52 ± 0.1
EPM2AIP1 (UniProt Q7L775),0.97 ± 0.091,0.979 ± 0.11,1.01 ± 0.096,0.941 ± 0.13,1.03 ± 0.12,1.06 ± 0.082
CYB5R4 (UniProt Q7L1T6),0.993 ± 0.037,0.993 ± 0.063,0.977 ± 0.032,0.982 ± 0.1,1 ± 0.052,1 ± 0.058
UniProt Q86X76-2,1.03 ± 0.12,1 ± 0.1,0.999 ± 0.072,0.925 ± 0.11,1 ± 0.058,0.991 ± 0.045
LPCAT2 (UniProt Q7L5N7),0.966 ± 0.037,0.951 ± 0.073,1.06 ± 0.044,0.978 ± 0.017,0.951 ± 0.075,0.923 ± 0.21
CAND1 (UniProt Q86VP6),0.964 ± 0.019,0.976 ± 0.043,0.933 ± 0.024,0.942 ± 0.037,0.929 ± 0.041,0.948 ± 0.039
NCAPG2 (UniProt Q86XI2),1.06 ± 0.13,1.09 ± 0.081,1.06 ± 0.067,0.997 ± 0.038,1.09 ± 0.017,1.1 ± 0.009
UniProt Q6Y288,1 ± 0.086,0.987 ± 0.033,0.913 ± 0.013,0.907 ± 0.068,0.954 ± 0.014,0.96 ± 0.046
TMED8 (UniProt Q6PL24),0.951 ± 0.04,0.969 ± 0.038,0.949 ± 0.021,0.95 ± 0.045,0.939 ± 0.026,0.951 ± 0.023
UniProt Q86V88 and related entries,0.904 ± 0.19,0.91 ± 0.23,0.984 ± 0.29,0.962 ± 0.31,0.933 ± 0.24,0.939 ± 0.3
UniProt Q6YP21 and related entries,1.06 ± 0.18,1.04 ± 0.12,1.02 ± 0.1,0.944 ± 0.17,1.02 ± 0.091,1.05 ± 0.098
UniProt Q6STE5 and related entries,1.28 ± 0.29,1.2 ± 0.079,1.33 ± 0.12,1.25 ± 0.13,1.32 ± 0.1,1.3 ± 0.082
UniProt Q6ZVM7 and related entries,0.95 ± 0.047,0.988 ± 0.029,1.01 ± 0.091,1.02 ± 0.11,0.939 ± 0.046,0.947 ± 0.034
DCP2 (UniProt Q8IU60),1.03 ± 0.013,1.047 ± 0.01,1 ± 0.014,1.06 ± 0.017,1.08 ± 0.02,1.07 ± 0.044
UniProt Q86UV5 and related entries,1.03 ± 0.07,1.02 ± 0.062,1 ± 0.047,0.973 ± 0.08,1.02 ± 0.039,0.996 ± 0.027
GPR180 (UniProt Q86V85),0.961 ± 0.033,0.948 ± 0.016,0.912 ± 0.045,0.905 ± 0.048,0.939 ± 0.018,0.935 ± 0.045

Target,NP40-soluble protein abundance (concentration: 1mM),NP40-soluble protein abundance (concentration: 2mM),NP40-soluble protein abundance (concentration: 4mM),NP40-soluble protein abundance (concentration: 6mM),NP40-soluble protein abundance (concentration: 8mM),NP40-soluble protein abundance (concentration: 10mM)
C5orf24 (UniProt Q7Z6I8),0.963 ± 0.025,0.981 ± 0.029,1.01 ± 0.071,1.01 ± 0.033,0.957 ± 0.037,0.921 ± 0.042
UniProt Q6PIW4 and related entries,1.05 ± 0.065,0.994 ± 0.056,0.975 ± 0.033,0.9608 ± 0.0092,0.992 ± 0.061,0.994 ± 0.052
TTC33 (UniProt Q6PID6),0.959 ± 0.057,0.956 ± 0.012,0.941 ± 0.017,0.967 ± 0.024,0.932 ± 0.017,0.92 ± 0.019
EEPD1 (UniProt Q7L9B9),1.03 ± 0.1,1.07 ± 0.13,1.06 ± 0.064,1.01 ± 0.087,0.995 ± 0.083,1.06 ± 0.032
UniProt Q7LDG7 and related entries,1.02 ± 0.032,1.08 ± 0.046,1.11 ± 0.042,1.05 ± 0.036,1.13 ± 0.06,1.13 ± 0.055
UniProt Q86TV6 and related entries,0.927 ± 0.013,0.888 ± 0.016,0.964 ± 0.066,0.881 ± 0.12,0.95 ± 0.13,0.991 ± 0.041
UniProt Q86YS7 and related entries,1.01 ± 0.029,1.01 ± 0.027,1.02 ± 0.062,1 ± 0.014,0.996 ± 0.0069,1 ± 0.019
TMED4 (UniProt Q7Z7H5),0.923 ± 0.023,0.977 ± 0.034,0.926 ± 0.038,0.963 ± 0.035,0.949 ± 0.043,0.946 ± 0.051
UniProt Q86UA6 and related entries,1.04 ± 0.1,1 ± 0.1,0.939 ± 0.12,1 ± 0.12,1.03 ± 0.11,0.927 ± 0.056
BLOC1S2 (UniProt Q6QNY1),0.988 ± 0.099,1.08 ± 0.063,1.01 ± 0.088,1.02 ± 0.2,0.9422 ± 0.009,0.988 ± 0.029
SDCCAG8 (UniProt Q86SQ7),0.999 ± 0.011,0.99 ± 0.041,1.02 ± 0.06,1.03 ± 0.063,0.944 ± 0.042,0.945 ± 0.043
SETD3 (UniProt Q86TU7),1.03 ± 0.059,1.01 ± 0.056,0.989 ± 0.038,0.959 ± 0.087,1.03 ± 0.028,1.03 ± 0.031
BLOC1S3 (UniProt Q6QNY0),0.969 ± 0.045,0.972 ± 0.037,0.949 ± 0.053,0.937 ± 0.045,0.927 ± 0.033,0.894 ± 0.036
UniProt Q7Z3K3 and related entries,1.04 ± 0.026,1.07 ± 0.034,1.1 ± 0.035,1.12 ± 0.019,1.16 ± 0.044,1.21 ± 0.042
UniProt Q86U86 and related entries,1.29 ± 0.021,1.348 ± 0.0056,1.42 ± 0.042,1.52 ± 0.1,1.63 ± 0.065,1.66 ± 0.03
UniProt Q7Z7A4 and related entries,0.992 ± 0.11,0.995 ± 0.089,0.982 ± 0.029,0.872 ± 0.13,0.954 ± 0.032,1 ± 0.058
SLC30A9 (UniProt Q6PML9),0.994 ± 0.01,1.02 ± 0.046,0.987 ± 0.056,0.965 ± 0.059,0.976 ± 0.026,0.966 ± 0.024
TRAPPC6B (UniProt Q86SZ2),0.947 ± 0.099,0.972 ± 0.027,0.934 ± 0.053,0.873 ± 0.034,0.974 ± 0.071,0.968 ± 0.053
MICAL3 (UniProt Q7RTP6),0.981 ± 0.08,0.966 ± 0.014,0.998 ± 0.046,0.921 ± 0.025,0.954 ± 0.068,0.916 ± 0.035
NT5DC3 (UniProt Q86UY8),1.01 ± 0.18,1.07 ± 0.092,1.06 ± 0.14,0.986 ± 0.12,1 ± 0.1,1.01 ± 0.078

# In a second layout: results already given.
Target | NP40-soluble protein abundance (concentration: 1mM) | NP40-soluble protein abundance (concentration: 2mM) | NP40-soluble protein abundance (concentration: 4mM) | NP40-soluble protein abundance (concentration: 6mM) | NP40-soluble protein abundance (concentration: 8mM) | NP40-soluble protein abundance (concentration: 10mM)
TMED4 (UniProt Q7Z7H5) | 0.923 ± 0.023 | 0.977 ± 0.034 | 0.926 ± 0.038 | 0.963 ± 0.035 | 0.949 ± 0.043 | 0.946 ± 0.051
UniProt Q86UA6 and related entries | 1.04 ± 0.1 | 1 ± 0.1 | 0.939 ± 0.12 | 1 ± 0.12 | 1.03 ± 0.11 | 0.927 ± 0.056
BLOC1S2 (UniProt Q6QNY1) | 0.988 ± 0.099 | 1.08 ± 0.063 | 1.01 ± 0.088 | 1.02 ± 0.2 | 0.9422 ± 0.009 | 0.988 ± 0.029
SDCCAG8 (UniProt Q86SQ7) | 0.999 ± 0.011 | 0.99 ± 0.041 | 1.02 ± 0.06 | 1.03 ± 0.063 | 0.944 ± 0.042 | 0.945 ± 0.043
SETD3 (UniProt Q86TU7) | 1.03 ± 0.059 | 1.01 ± 0.056 | 0.989 ± 0.038 | 0.959 ± 0.087 | 1.03 ± 0.028 | 1.03 ± 0.031

# (cont.)

Target,NP40-soluble protein abundance (concentration: 1mM),NP40-soluble protein abundance (concentration: 2mM),NP40-soluble protein abundance (concentration: 4mM),NP40-soluble protein abundance (concentration: 6mM),NP40-soluble protein abundance (concentration: 8mM),NP40-soluble protein abundance (concentration: 10mM)
UniProt Q7Z406 and related entries,1.01 ± 0.22,1.02 ± 0.1,1.04 ± 0.14,0.991 ± 0.2,1.08 ± 0.12,1.02 ± 0.074
UniProt Q7Z6K3 and related entries,0.9836 ± 0.0097,0.994 ± 0.027,0.962 ± 0.047,0.973 ± 0.011,0.968 ± 0.016,0.947 ± 0.05
MFSD6 (UniProt Q6ZSS7),0.873 ± 0.044,0.91 ± 0.071,0.882 ± 0.15,0.783 ± 0.13,0.805 ± 0.13,0.866 ± 0.16
UniProt Q7Z4G4 and related entries,1.03 ± 0.16,1.02 ± 0.051,1.01 ± 0.17,0.998 ± 0.11,1.02 ± 0.097,0.996 ± 0.07
UniProt Q6PI26 and related entries,1.02 ± 0.019,1.05 ± 0.041,0.997 ± 0.14,1.05 ± 0.057,1.04 ± 0.037,1.08 ± 0.087
UniProt Q86VX2 and related entries,0.984 ± 0.16,0.938 ± 0.097,0.945 ± 0.072,0.935 ± 0.095,0.975 ± 0.085,0.941 ± 0.075
PACS1 (UniProt Q6VY07),0.971 ± 0.032,0.977 ± 0.037,0.982 ± 0.026,0.94 ± 0.038,0.939 ± 0.018,0.985 ± 0.039
UniProt Q7Z591 and related entries,1.07 ± 0.082,1.07 ± 0.041,1.08 ± 0.073,1.08 ± 0.063,1.07 ± 0.1,1.07 ± 0.072
PRPF39 (UniProt Q86UA1),1.06 ± 0.012,1.04 ± 0.017,1.042 ± 0.0013,0.987 ± 0.052,0.998 ± 0.012,1.03 ± 0.018
UniProt Q7Z3B4 and related entries,0.964 ± 0.0057,0.969 ± 0.012,0.972 ± 0.028,0.943 ± 0.067,0.999 ± 0.04,1.03 ± 0.027
UniProt Q7RTV0,1.09 ± 0.076,1.105 ± 0.0071,1.12 ± 0.021,1.2 ± 0.047,1.181 ± 0.0046,1.18 ± 0.023
UniProt Q6SJ93 and related entries,0.99 ± 0.09,0.971 ± 0.076,0.971 ± 0.096,0.945 ± 0.11,0.93 ± 0.092,0.935 ± 0.1
HOMER1 (UniProt Q86YM7),0.961 ± 0.093,0.988 ± 0.013,0.944 ± 0.054,1.02 ± 0.072,0.989 ± 0.049,1.03 ± 0.07
UniProt Q7Z6L1 and related entries,0.972 ± 0.052,0.936 ± 0.052,0.94 ± 0.055,0.921 ± 0.092,0.948 ± 0.073,0.92 ± 0.067
ERI1 (UniProt Q8IV48),1.03 ± 0.12,1.06 ± 0.062,1.12 ± 0.015,1.11 ± 0.13,1.22 ± 0.05,1.24 ± 0.055
HSDL2 (UniProt Q6YN16),0.957 ± 0.057,0.967 ± 0.044,0.948 ± 0.069,0.9537 ± 0.0024,0.916 ± 0.027,0.963 ± 0.041
UniProt Q7L8J4 and related entries,0.967 ± 0.065,0.948 ± 0.014,0.917 ± 0.067,0.882 ± 0.042,0.888 ± 0.037,0.909 ± 0.045
UniProt Q7L0J3 and related entries,0.995 ± 0.046,0.981 ± 0.012,0.982 ± 0.017,1.01 ± 0.07,0.968 ± 0.076,0.962 ± 0.037
KCTD9 (UniProt Q7L273),0.941 ± 0.043,0.944 ± 0.014,0.934 ± 0.019,0.981 ± 0.029,0.904 ± 0.032,0.928 ± 0.041
METTL3 (UniProt Q86U44),1.04 ± 0.03,1.02 ± 0.028,1.01 ± 0.037,1.02 ± 0.058,1 ± 0.067,1 ± 0.031
